Test results reported in PMC5345265.
Results are given in words; binding and its absence hold for the method and conditions named. In cells and extracts the contact can be indirect. Some binding calls cover weakened binding; strength is not graded here. Tags and fused reporters may be left off the sequences shown.

T1: Flag-tagged TSPAN6 (UniProt O43657)
T1 sequence: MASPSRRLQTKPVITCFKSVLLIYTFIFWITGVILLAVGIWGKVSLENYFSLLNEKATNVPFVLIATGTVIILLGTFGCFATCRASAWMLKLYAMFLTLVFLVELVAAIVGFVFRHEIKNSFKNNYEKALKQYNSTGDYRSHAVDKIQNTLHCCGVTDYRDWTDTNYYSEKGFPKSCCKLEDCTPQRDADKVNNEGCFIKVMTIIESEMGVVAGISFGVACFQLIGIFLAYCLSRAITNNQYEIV

B1: myc-tagged TSPAN6 wild type (tetraspanin-6) (protein, UniProt O43657 1-245)
chain: T1 sequence
B2: HA-tagged syntenin lacking the first 101 N-terminal amino acids (domain or fragment, UniProt O00560 102-298)
chain: GIRRAEIKQGIREVILCKDQDGKIGLRLKSIDNGIFVQLVQANSPASLVGLRFGDQVLQINGENCAGWSSDKAHKVLKQAFGEKITMTIRDRPFERTITMHKDSTGHVGFIFKNGKITSIVKDSSAARNGLLTEHNICEINGQNVIGLKDSQIADILSTSGTVVTITIMPAFIFEHIIKRMAPSIMKSLMDHTIPEV

What was measured:
[1] = molecular target: T1, Flag-tagged TSPAN6; assay: co-IP; HEK293 cells co-transfected with Flag-TSPAN6 and HA-tagged syntenin constructs; Flag-TSPAN6 immunoprecipitated with anti-Flag antibody, western blot with anti-HA antibody
[2] = molecular target: Flag-tagged syntenin (UniProt O00560); assay: co-IP; HEK293 cells co-expressing Flag-tagged syntenin and myc-tagged TSPAN6 wt or mutants; Flag-tagged syntenin immunoprecipitated, western blot with anti-myc antibody

Molecule | binding [1] | binding [2]
HA-tagged syntenin lacking the last 17 C-terminal amino acids (from UniProt O00560 1-281) (domain or fragment) | no binding | –
HA-tagged wt syntenin (from UniProt O00560 1-298) | binds | –
B1 | – | binds
B2 | binds | –
